Reference: the supplement of paper PMC6411743
± gives the standard deviation of the averaged measurements. The list shows a part of the results.

Protein sequences, listed by entry. Tags and fused reporters are not part of them. Lines headed by an entry give the natural chain unless they say otherwise; changes in a name come on top.
UniProt Q15291, whole entry: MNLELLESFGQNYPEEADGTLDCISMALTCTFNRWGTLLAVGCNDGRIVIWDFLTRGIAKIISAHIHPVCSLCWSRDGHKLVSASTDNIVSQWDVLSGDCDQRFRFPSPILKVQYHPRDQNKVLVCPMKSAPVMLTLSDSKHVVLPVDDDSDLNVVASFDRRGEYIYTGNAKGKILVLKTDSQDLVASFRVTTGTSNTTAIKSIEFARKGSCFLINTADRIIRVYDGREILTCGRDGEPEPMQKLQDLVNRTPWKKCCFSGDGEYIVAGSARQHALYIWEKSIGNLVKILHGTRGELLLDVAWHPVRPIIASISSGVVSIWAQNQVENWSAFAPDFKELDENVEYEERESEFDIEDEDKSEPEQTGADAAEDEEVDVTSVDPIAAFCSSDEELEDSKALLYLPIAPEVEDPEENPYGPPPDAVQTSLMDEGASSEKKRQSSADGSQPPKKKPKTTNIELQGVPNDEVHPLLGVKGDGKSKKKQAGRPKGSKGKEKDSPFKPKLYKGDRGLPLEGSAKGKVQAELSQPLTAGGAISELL
UniProt Q32P51: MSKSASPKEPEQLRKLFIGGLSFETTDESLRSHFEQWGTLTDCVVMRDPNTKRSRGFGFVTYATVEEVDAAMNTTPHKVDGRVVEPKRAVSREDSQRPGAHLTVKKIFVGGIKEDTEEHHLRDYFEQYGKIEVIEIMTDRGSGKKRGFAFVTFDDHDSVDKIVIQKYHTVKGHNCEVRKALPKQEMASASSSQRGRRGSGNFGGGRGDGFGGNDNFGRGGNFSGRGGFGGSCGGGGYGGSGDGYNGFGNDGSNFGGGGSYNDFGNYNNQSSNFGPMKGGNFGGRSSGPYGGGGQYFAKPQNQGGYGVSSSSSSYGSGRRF
UniProt Q5TA50: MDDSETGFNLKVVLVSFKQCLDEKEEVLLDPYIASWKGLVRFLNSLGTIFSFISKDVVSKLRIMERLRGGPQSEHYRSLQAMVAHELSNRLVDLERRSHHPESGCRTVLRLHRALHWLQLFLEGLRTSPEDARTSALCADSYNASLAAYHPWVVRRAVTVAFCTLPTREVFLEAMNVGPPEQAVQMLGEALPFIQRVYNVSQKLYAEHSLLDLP
UniProt Q16763: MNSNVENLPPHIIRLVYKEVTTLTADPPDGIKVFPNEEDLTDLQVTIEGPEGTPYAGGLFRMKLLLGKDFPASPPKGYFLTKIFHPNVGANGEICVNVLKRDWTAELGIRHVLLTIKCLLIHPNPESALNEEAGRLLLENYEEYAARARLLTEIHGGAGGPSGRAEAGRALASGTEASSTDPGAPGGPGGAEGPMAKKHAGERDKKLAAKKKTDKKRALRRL
UniProt Q15427: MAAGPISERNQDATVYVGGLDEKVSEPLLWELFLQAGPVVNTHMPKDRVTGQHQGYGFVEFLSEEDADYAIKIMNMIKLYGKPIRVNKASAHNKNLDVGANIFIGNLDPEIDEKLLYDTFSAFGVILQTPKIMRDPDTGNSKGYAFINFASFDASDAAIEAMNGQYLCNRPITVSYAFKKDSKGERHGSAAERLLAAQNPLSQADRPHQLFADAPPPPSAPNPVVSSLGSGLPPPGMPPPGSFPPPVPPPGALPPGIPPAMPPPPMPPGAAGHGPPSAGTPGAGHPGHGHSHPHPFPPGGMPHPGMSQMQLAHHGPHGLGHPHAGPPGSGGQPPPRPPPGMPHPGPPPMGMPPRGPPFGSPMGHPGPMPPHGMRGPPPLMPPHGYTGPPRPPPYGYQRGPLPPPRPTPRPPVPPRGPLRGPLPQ
UniProt Q15814: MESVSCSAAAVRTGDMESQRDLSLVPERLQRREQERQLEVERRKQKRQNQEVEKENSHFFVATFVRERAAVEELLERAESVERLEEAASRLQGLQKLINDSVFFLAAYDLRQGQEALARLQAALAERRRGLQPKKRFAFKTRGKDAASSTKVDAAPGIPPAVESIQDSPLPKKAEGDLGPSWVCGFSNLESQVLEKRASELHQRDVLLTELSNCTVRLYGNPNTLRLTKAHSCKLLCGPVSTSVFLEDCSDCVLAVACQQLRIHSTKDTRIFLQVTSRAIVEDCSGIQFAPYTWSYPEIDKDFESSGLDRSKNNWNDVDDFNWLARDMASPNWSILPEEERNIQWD

Compound: Nc1nc2c(ncn2[C@@H]2O[C@H](COP(=O)(O)OP(=O)(O)OP(=O)(O)O)[C@@H](O)[C@H]2O)c(=O)[nH]1 [guanosine triphosphate]
Experiment: NP40-soluble protein abundance relative to vehicle (solubility fold change) (ratio); higher = more soluble protein in presence of GTP
Method in brief: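 Data come from three independent experiments in which Dounce-homogenised Jurkat crude lysate was treated at eight concentrations from 0.1 to 10 mM. Treatment ran 10 min at room temperature and then 3 min at 37 °C, after which 0.8% NP40 and benzonase were added for 60 min at 4 °C before ultracentrifugation. The supernatant underwent TMT labelling and LC-MS/MS, and vsn-normalised intensities were expressed as fold change against the detergent-processed vehicle in each replicate.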

Target | NP40-soluble protein abundance (concentration: 0.1mM) | NP40-soluble protein abundance (concentration: 0.5mM) | NP40-soluble protein abundance (concentration: 1mM) | NP40-soluble protein abundance (concentration: 2mM) | NP40-soluble protein abundance (concentration: 4mM) | NP40-soluble protein abundance (concentration: 6mM) | NP40-soluble protein abundance (concentration: 8mM) | NP40-soluble protein abundance (concentration: 10mM)
UniProt Q15291 and related entries | 1.03 ± 0.062 | 1.03 ± 0.057 | 0.957 ± 0.041 | 0.996 ± 0.083 | 1.01 ± 0.11 | 1.05 ± 0.079 | 1.01 ± 0.057 | 1.03 ± 0.051
HNRNPA1L2 (UniProt Q32P51) | 1.34 ± 0.52 | 1.32 ± 0.58 | 1.8 ± 0.79 | 1.49 ± 0.44 | 1.47 ± 0.51 | 1.67 ± 0.65 | 1.92 ± 0.8 | 1.58 ± 0.35
CPTP (UniProt Q5TA50) | 1.04 ± 0.11 | 0.965 ± 0.064 | 0.85 ± 0.071 | 0.947 ± 0.073 | 0.9512 ± 0.0023 | 0.934 ± 0.071 | 0.843 ± 0.035 | 0.866 ± 0.032
UBE2S (UniProt Q16763) | 0.992 ± 0.031 | 0.941 ± 0.01 | 0.9603 ± 0.0058 | 0.905 ± 0.015 | 0.924 ± 0.023 | 0.905 ± 0.023 | 0.928 ± 0.054 | 0.869 ± 0.032
UniProt Q5R372 and related entries | 1.04 ± 0.012 | 0.993 ± 0.036 | 0.962 ± 0.021 | 0.955 ± 0.019 | 0.968 ± 0.03 | 0.916 ± 0.01 | 0.9582 ± 0.0061 | 0.931 ± 0.039
SF3B4 (UniProt Q15427) | 0.944 ± 0.16 | 1.03 ± 0.17 | 1 ± 0.16 | 1.07 ± 0.16 | 1.11 ± 0.17 | 1.09 ± 0.16 | 1.15 ± 0.2 | 1.13 ± 0.2
UniProt Q5T0F9-2 | 0.938 ± 0.078 | 0.975 ± 0.12 | 0.933 ± 0.098 | 0.928 ± 0.12 | 0.893 ± 0.092 | 0.911 ± 0.13 | 0.952 ± 0.12 | 0.946 ± 0.12
TBCC (UniProt Q15814) | 1.07 ± 0.057 | 1.06 ± 0.02 | 0.97 ± 0.075 | 0.997 ± 0.13 | 0.966 ± 0.11 | 0.939 ± 0.096 | 0.946 ± 0.033 | 0.921 ± 0.077
